Assay results from the supplement of paper PMC10689618.
This is one part of the list. Single values are uncertain, as repeats are few or missing.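 Labelled rat cortical synaptosomes were engulfed by primary human fetal astrocytes. Engulfment equaled a red/green ratio, corrected for calcein live-cell signal and normalized to the plate median. Compounds were toxic when calcein dropped over 30%, and reduced phagocytosis when below 70% of the median above 5 µM.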

What was measured:
[1] = tested on: Human fetal astrocytes; experiment: loss of total cells relative to no-compound high-control median (toxicity); higher = more toxic (fewer cells); settings: 24 h
[2] = tested on: Human fetal astrocytes; experiment: synaptosome phagocytosis (pHrodo/calcein intensity ratio) relative to plate median of data wells; higher = more phagocytosis; settings: 24 h

Structure (SMILES)	loss of total cells ([1]; 1.39 µM) [%]	loss of total cells ([1]; 2.78 µM) [%]	loss of total cells ([1]; 5.56 µM) [%]	loss of total cells ([1]; 11.11 µM) [%]	loss of total cells ([1]; 22.22 µM) [%]	synaptosome phagocytosis ([2]; 1.39 µM) [%]	synaptosome phagocytosis ([2]; 2.78 µM) [%]	synaptosome phagocytosis ([2]; 5.56 µM) [%]	synaptosome phagocytosis ([2]; 11.11 µM) [%]	synaptosome phagocytosis ([2]; 22.22 µM) [%]
COc1ccc(-c2cc(=O)c3c(OC)c(OC)c(OC)c(OC)c3o2)cc1	-23	0.4	12.5	20.3	20	89.8	96	97.7	107	110
CN(C)CCN(Cc1ccc(Cl)cc1)c1ccccn1	9.7	9.7	15.2	13	12.1	106	112	112	93.5	123
CCCCN1CCCCC1C(=O)Nc1c(C)cccc1C (stereo not given)	-45.2	-15.9	4.3	-6.2	-7.2	24.2	97.4	85.4	77.6	62.3
Cc1[nH]ccc2c1[nH]c1cc(=O)ccc12	4.9	-12.6	-5.1	7.4	5.2	119	85.9	135	120	102
CCN(CCCc1ccccc1)CCCc1ccccc1	-0.8	-16.8	5.7	-2.3	21.5	72.6	75	70.8	103	80.3
CC(C)Cn1c(=O)n(C)c(=O)c2[nH]cnc21	-19.7	-7.6	14.7	14.9	-3	122	85.1	112	94.3	102
CC(NCCC(c1ccccc1)c1ccccc1)c1ccccc1 (stereo not given)	11.2	9	23.2	7.1	31.1	65.3	100	105	59	82.6
NC(=O)CCCCC1CCSS1 (stereo not given)	7.6	4	7.2	7.9	21.2	82.1	123	126	125	99
CCCc1ncc(C[n+]2ccccc2C)c(N)n1	-14.9	-30.8	3.9	1.6	6.2	116	117	99.6	113	84.2
NCCCCCC(=O)O [6-Aminohexanoic acid]	2.5	26.5	-5.1	-16.4	6.2	109	59.2	104	112	87.4
CCCCCC(C)N (stereo not given)	-0.3	-9.8	-7.7	6.1	31.3	118	95.7	94.9	107	114
OC[C@H]1O[C@@H](O[C@H]2[C@H](O)[C@@H](O)C(O)O[C@@H]2CO)[C@H](O)[C@@H](O)[C@@H]1O (stereo not given in full)	-6.6	-14.8	-5.1	-0.7	-3.7	125	104	125	110	110
NCCC(=O)N[C@@H](Cc1c[nH]cn1)C(=O)O	-8.2	1.1	8.8	18.9	3	85.6	132	132	138	131
COc1ccc2c(=O)c(-c3ccc(O)cc3)coc2c1	-41	16.2	15.4	-3.4	8.9	48.6	128	91.7	82.5	142
C[C@]12CCC(=O)C=C1CC[C@@H]1[C@@H]2[C@@H](O)C[C@@]2(C)[C@H]1CC[C@]2(O)C(=O)CO	-9.1	-21	-0.3	-12.5	9.1	109	104	119	146	110
CC1(C)O[C@@H]2C[C@H]3[C@@H]4CCC5=CC(=O)C=C[C@]5(C)[C@@]4(F)[C@@H](O)C[C@]3(C)[C@]2(C(=O)CO)O1	-18.7	-18	-34.8	-19.9	-21.6	120	103	128	97.6	89.8
COc1cccc(O)c1O	17.7	24.9	36.2	53.1	63.6	93.5	119	108	115	59.1
Cc1cc2c(cc1S(N)(=O)=O)S(=O)(=O)CCC2	29.2	24.2	23.2	3.8	24.2	102	148	149	114	172
CN[C@H](CC(C)C)C(=O)N[C@H]1C(=O)N[C@@H](CC(N)=O)C(=O)N[C@H]2C(=O)N[C@H]3C(=O)N[C@H](C(=O)N[C@H](C(=O)O)c4cc(O)cc(O)c4-c4cc3ccc4O)[C@H](O)c3ccc(c(Cl)c3)Oc3cc2cc(c3O[C@@H]2O[C@H](CO)[C@@H](O)[C@H](O)[C@H]2O[C@H]2C[C@](C)(N)[C@H](O)[C@H](C)O2)Oc2ccc(cc2Cl)[C@H]1O	5.6	-0.3	0	4.9	35	79.4	86.1	102	121	109

Look-ups from the list:
In loss of total cells ([1]; 22.22 µM) [%], `NCCCCCC(=O)O` [6-Aminohexanoic acid] shows 6.2
In loss of total cells ([1]; 2.78 µM) [%], `CCN(CCCc1ccccc1)CCCc1ccccc1` shows -16.8
